These are yes or no findings as the source states them, for the method shown. Binding seen in cells or lysates may run through a third protein. Some entries that bind do so weakly or less than the wild type. Sequences can lack the tags named with a protein.
T1: FLAG-tagged wild-type Drosophila SMN (Flag-dSMN WT) (Drosophila melanogaster) (UniProt Q9VV74)
T1 sequence: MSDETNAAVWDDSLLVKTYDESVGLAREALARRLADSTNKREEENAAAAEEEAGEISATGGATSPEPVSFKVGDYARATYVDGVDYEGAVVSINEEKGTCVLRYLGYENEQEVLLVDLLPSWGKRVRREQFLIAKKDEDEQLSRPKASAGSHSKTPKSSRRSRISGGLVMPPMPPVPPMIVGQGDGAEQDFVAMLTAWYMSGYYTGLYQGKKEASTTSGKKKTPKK

Chains of the proteins cited; added tags and fusions are not shown.
UniProt Q9VU02: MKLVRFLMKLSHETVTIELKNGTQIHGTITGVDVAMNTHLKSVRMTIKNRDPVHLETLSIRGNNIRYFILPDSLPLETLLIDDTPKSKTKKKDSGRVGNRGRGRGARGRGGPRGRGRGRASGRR

T2: Myc-tagged Drosophila Gemin3 (Myc-dGem3) (Drosophila) (UniProt Q9V3C4)
T2 sequence: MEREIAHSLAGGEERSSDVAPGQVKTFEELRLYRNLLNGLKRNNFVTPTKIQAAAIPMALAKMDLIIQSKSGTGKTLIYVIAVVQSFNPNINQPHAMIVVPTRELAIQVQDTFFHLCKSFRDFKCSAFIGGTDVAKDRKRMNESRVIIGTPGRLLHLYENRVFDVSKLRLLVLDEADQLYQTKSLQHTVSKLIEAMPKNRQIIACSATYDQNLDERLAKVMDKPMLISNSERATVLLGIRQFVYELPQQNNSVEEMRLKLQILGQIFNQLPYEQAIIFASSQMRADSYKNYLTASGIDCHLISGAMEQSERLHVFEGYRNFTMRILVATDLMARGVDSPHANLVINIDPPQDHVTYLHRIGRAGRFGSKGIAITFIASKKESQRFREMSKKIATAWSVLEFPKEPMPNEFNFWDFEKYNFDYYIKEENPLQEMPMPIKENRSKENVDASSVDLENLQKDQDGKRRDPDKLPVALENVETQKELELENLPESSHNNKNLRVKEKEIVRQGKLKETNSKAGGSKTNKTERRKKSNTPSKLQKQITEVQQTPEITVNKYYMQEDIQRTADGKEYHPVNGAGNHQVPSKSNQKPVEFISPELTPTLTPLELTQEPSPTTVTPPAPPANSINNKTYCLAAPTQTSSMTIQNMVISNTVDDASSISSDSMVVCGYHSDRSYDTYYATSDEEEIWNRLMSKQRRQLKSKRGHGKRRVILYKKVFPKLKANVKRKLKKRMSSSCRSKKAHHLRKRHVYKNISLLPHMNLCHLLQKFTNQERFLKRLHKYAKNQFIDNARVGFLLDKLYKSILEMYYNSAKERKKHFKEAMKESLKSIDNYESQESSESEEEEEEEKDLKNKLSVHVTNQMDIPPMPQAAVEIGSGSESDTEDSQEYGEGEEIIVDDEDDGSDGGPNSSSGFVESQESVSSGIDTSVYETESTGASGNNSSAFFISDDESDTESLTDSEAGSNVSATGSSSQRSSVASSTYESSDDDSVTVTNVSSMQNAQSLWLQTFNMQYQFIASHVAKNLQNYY


Legend:
[1] = target: T1, FLAG-tagged wild-type Drosophila SMN (Flag-dSMN WT) (Drosophila melanogaster); assay: co-IP; S2 cells co-transfected with FLAG-tagged dSMN and a Myc-tagged partner (dSMN or dGem2); lysis buffer 50 mM Tris-HCl pH 7.5, 150 mM NaCl, 1 mM EDTA, 1% NP-40, 10% glycerol; immunoprecipitation with anti-FLAG agarose, western blot with anti-Myc (Fig. 3A, 3B, 6A)
[2] = target: T2, Myc-tagged Drosophila Gemin3 (Myc-dGem3) (Drosophila); assay: co-IP; S2 cells co-transfected with Flag-dSMN and Myc-dGem3; immunoprecipitation of Myc-dGem3 with anti-Myc agarose, western blot with anti-FLAG (Fig. 3C)
[3] = target: SmD1 (UniProt Q9VU02); assay: co-IP; S2 cell co-transfection assay 'similar to that in Fig. 3'; no figure shown; tags and who was precipitated are not told

binding [1] | binding [2] | binding [3] | Binder
binds | binds | – | FLAG-tagged wild-type Drosophila SMN (Flag-dSMN WT) (protein, UniProt Q9VV74 1-226) MSDETNAAVWDDSLLVKTYDESVGLAREALARRLADSTNKREEENAAAAEEEAGEISATGGATSPEPVSFKVGDYARATYVDGVDYEGAVVSINEEKGTCVLRYLGYENEQEVLLVDLLPSWGKRVRREQFLIAKKDEDEQLSRPKASAGSHSKTPKSSRRSRISGGLVMPPMPPVPPMIVGQGDGAEQDFVAMLTAWYMSGYYTGLYQGKKEASTTSGKKKTPKK
– | – | binds | FLAG-tagged dSMN(D20V) (protein, UniProt Q9VV74 1-226) MSDETNAAVWDDSLLVKTYVESVGLAREALARRLADSTNKREEENAAAAEEEAGEISATGGATSPEPVSFKVGDYARATYVDGVDYEGAVVSINEEKGTCVLRYLGYENEQEVLLVDLLPSWGKRVRREQFLIAKKDEDEQLSRPKASAGSHSKTPKSSRRSRISGGLVMPPMPPVPPMIVGQGDGAEQDFVAMLTAWYMSGYYTGLYQGKKEASTTSGKKKTPKK
– | – | binds | FLAG-tagged dSMN(Y203C) (protein, UniProt Q9VV74 1-226) MSDETNAAVWDDSLLVKTYDESVGLAREALARRLADSTNKREEENAAAAEEEAGEISATGGATSPEPVSFKVGDYARATYVDGVDYEGAVVSINEEKGTCVLRYLGYENEQEVLLVDLLPSWGKRVRREQFLIAKKDEDEQLSRPKASAGSHSKTPKSSRRSRISGGLVMPPMPPVPPMIVGQGDGAEQDFVAMLTAWYMSGCYTGLYQGKKEASTTSGKKKTPKK
– | – | binds | dSMN(I93F) (protein, UniProt Q9VV74 1-226) MSDETNAAVWDDSLLVKTYDESVGLAREALARRLADSTNKREEENAAAAEEEAGEISATGGATSPEPVSFKVGDYARATYVDGVDYEGAVVSFNEEKGTCVLRYLGYENEQEVLLVDLLPSWGKRVRREQFLIAKKDEDEQLSRPKASAGSHSKTPKSSRRSRISGGLVMPPMPPVPPMIVGQGDGAEQDFVAMLTAWYMSGYYTGLYQGKKEASTTSGKKKTPKK
– | binds | binds | FLAG-tagged dSMN(T205I) (protein, UniProt Q9VV74 1-226) MSDETNAAVWDDSLLVKTYDESVGLAREALARRLADSTNKREEENAAAAEEEAGEISATGGATSPEPVSFKVGDYARATYVDGVDYEGAVVSINEEKGTCVLRYLGYENEQEVLLVDLLPSWGKRVRREQFLIAKKDEDEQLSRPKASAGSHSKTPKSSRRSRISGGLVMPPMPPVPPMIVGQGDGAEQDFVAMLTAWYMSGYYIGLYQGKKEASTTSGKKKTPKK
– | – | binds | dSMN(G210C) (protein, UniProt Q9VV74 1-226) MSDETNAAVWDDSLLVKTYDESVGLAREALARRLADSTNKREEENAAAAEEEAGEISATGGATSPEPVSFKVGDYARATYVDGVDYEGAVVSINEEKGTCVLRYLGYENEQEVLLVDLLPSWGKRVRREQFLIAKKDEDEQLSRPKASAGSHSKTPKSSRRSRISGGLVMPPMPPVPPMIVGQGDGAEQDFVAMLTAWYMSGYYTGLYQCKKEASTTSGKKKTPKK
– | – | binds | dSMN(Y107C) (protein, UniProt Q9VV74 1-226) MSDETNAAVWDDSLLVKTYDESVGLAREALARRLADSTNKREEENAAAAEEEAGEISATGGATSPEPVSFKVGDYARATYVDGVDYEGAVVSINEEKGTCVLRYLGCENEQEVLLVDLLPSWGKRVRREQFLIAKKDEDEQLSRPKASAGSHSKTPKSSRRSRISGGLVMPPMPPVPPMIVGQGDGAEQDFVAMLTAWYMSGYYTGLYQGKKEASTTSGKKKTPKK
– | – | binds | FLAG-tagged dSMN(G206S) (protein, UniProt Q9VV74 1-226) MSDETNAAVWDDSLLVKTYDESVGLAREALARRLADSTNKREEENAAAAEEEAGEISATGGATSPEPVSFKVGDYARATYVDGVDYEGAVVSINEEKGTCVLRYLGYENEQEVLLVDLLPSWGKRVRREQFLIAKKDEDEQLSRPKASAGSHSKTPKSSRRSRISGGLVMPPMPPVPPMIVGQGDGAEQDFVAMLTAWYMSGYYTSLYQGKKEASTTSGKKKTPKK
– | – | binds | FLAG-tagged dSMN(M194R) (protein, UniProt Q9VV74 1-226) MSDETNAAVWDDSLLVKTYDESVGLAREALARRLADSTNKREEENAAAAEEEAGEISATGGATSPEPVSFKVGDYARATYVDGVDYEGAVVSINEEKGTCVLRYLGYENEQEVLLVDLLPSWGKRVRREQFLIAKKDEDEQLSRPKASAGSHSKTPKSSRRSRISGGLVMPPMPPVPPMIVGQGDGAEQDFVARLTAWYMSGYYTGLYQGKKEASTTSGKKKTPKK
– | – | binds | dSMN(G73R) (protein, UniProt Q9VV74 1-226) MSDETNAAVWDDSLLVKTYDESVGLAREALARRLADSTNKREEENAAAAEEEAGEISATGGATSPEPVSFKVRDYARATYVDGVDYEGAVVSINEEKGTCVLRYLGYENEQEVLLVDLLPSWGKRVRREQFLIAKKDEDEQLSRPKASAGSHSKTPKSSRRSRISGGLVMPPMPPVPPMIVGQGDGAEQDFVAMLTAWYMSGYYTGLYQGKKEASTTSGKKKTPKK
– | – | binds | dSMN(V72G) (protein, UniProt Q9VV74 1-226) MSDETNAAVWDDSLLVKTYDESVGLAREALARRLADSTNKREEENAAAAEEEAGEISATGGATSPEPVSFKGGDYARATYVDGVDYEGAVVSINEEKGTCVLRYLGYENEQEVLLVDLLPSWGKRVRREQFLIAKKDEDEQLSRPKASAGSHSKTPKSSRRSRISGGLVMPPMPPVPPMIVGQGDGAEQDFVAMLTAWYMSGYYTGLYQGKKEASTTSGKKKTPKK
– | – | binds | dSMN(F70S) (protein, UniProt Q9VV74 1-226) MSDETNAAVWDDSLLVKTYDESVGLAREALARRLADSTNKREEENAAAAEEEAGEISATGGATSPEPVSSKVGDYARATYVDGVDYEGAVVSINEEKGTCVLRYLGYENEQEVLLVDLLPSWGKRVRREQFLIAKKDEDEQLSRPKASAGSHSKTPKSSRRSRISGGLVMPPMPPVPPMIVGQGDGAEQDFVAMLTAWYMSGYYTGLYQGKKEASTTSGKKKTPKK
– | – | binds | FLAG-tagged dSMN(G210V) (protein, UniProt Q9VV74 1-226) MSDETNAAVWDDSLLVKTYDESVGLAREALARRLADSTNKREEENAAAAEEEAGEISATGGATSPEPVSFKVGDYARATYVDGVDYEGAVVSINEEKGTCVLRYLGYENEQEVLLVDLLPSWGKRVRREQFLIAKKDEDEQLSRPKASAGSHSKTPKSSRRSRISGGLVMPPMPPVPPMIVGQGDGAEQDFVAMLTAWYMSGYYTGLYQVKKEASTTSGKKKTPKK
